Assay results from the supplement of paper PMC12823440, “Inhibitors supercharge kinase turnover through native proteolytic circuits” (Nature, 2025).
Some of the results follow. The calls rarely recur for the same compound in another form.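 Kinases, fused to nanoluciferase, were expressed in K562 cells; luminescence was measured every 4 h from 2 to 18 h as percent of control (DMSO = 100%, positive control = 0%). A time point is decreased if signal falls significantly (2 sigma). Hits were called by the authors by a rule that is not shown; the count of time points alone does not decide it.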

By UniProt entry, the sequences of proteins in these tests, tags left out. Where a name states a change or a piece, a line headed by the entry shows the natural chain unless it says otherwise.
UniProt Q06187: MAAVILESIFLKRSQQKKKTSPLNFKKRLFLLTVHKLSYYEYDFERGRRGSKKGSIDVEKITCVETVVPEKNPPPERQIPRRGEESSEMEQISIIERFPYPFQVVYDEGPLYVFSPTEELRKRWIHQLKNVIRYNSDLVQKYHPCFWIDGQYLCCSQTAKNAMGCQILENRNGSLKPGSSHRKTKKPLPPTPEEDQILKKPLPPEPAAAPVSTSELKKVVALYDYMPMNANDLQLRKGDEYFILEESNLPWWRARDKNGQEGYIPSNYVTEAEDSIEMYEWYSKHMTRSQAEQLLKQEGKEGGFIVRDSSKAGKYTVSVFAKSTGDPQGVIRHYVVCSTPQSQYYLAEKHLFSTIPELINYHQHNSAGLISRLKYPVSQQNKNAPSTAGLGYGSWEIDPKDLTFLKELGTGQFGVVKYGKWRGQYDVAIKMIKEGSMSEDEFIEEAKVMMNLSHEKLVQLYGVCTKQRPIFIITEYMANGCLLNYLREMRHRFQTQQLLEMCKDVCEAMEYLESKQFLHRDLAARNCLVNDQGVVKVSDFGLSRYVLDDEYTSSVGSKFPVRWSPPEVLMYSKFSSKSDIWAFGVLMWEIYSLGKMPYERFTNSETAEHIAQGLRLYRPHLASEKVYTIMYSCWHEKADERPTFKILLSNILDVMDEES
UniProt Q9UQM7, whole entry: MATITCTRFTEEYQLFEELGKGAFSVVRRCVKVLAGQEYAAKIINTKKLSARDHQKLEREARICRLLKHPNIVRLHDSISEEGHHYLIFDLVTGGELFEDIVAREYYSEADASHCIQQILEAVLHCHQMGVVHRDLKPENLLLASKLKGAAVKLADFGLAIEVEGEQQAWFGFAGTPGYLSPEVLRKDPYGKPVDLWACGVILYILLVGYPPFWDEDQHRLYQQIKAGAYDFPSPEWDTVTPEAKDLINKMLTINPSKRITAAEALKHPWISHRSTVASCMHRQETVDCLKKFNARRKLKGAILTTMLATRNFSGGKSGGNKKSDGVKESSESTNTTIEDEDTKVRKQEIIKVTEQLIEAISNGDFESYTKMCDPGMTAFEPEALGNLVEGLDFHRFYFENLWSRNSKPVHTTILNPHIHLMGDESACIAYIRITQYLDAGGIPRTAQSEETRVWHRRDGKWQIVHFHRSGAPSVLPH
UniProt Q13555: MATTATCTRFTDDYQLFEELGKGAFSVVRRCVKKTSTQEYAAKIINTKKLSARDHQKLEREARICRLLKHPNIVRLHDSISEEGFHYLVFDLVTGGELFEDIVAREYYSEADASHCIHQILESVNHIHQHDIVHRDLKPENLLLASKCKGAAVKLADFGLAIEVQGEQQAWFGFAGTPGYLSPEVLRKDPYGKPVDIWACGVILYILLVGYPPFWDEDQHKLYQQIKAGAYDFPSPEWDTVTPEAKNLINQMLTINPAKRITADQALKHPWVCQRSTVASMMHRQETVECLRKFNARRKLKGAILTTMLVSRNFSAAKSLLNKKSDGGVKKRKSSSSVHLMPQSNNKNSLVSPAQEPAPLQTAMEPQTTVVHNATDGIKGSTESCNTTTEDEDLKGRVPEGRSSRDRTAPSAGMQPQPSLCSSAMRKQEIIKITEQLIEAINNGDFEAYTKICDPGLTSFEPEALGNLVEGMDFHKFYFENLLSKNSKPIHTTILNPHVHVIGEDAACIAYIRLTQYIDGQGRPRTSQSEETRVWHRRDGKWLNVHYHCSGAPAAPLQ
UniProt Q00526: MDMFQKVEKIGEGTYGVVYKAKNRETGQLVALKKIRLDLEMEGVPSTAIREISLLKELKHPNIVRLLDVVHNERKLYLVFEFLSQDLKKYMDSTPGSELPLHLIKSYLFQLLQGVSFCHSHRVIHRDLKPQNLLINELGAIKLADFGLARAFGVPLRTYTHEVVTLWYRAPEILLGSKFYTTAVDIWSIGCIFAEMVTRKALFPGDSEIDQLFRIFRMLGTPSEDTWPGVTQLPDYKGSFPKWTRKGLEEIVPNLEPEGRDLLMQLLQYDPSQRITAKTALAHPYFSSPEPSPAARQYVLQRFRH
UniProt P11802: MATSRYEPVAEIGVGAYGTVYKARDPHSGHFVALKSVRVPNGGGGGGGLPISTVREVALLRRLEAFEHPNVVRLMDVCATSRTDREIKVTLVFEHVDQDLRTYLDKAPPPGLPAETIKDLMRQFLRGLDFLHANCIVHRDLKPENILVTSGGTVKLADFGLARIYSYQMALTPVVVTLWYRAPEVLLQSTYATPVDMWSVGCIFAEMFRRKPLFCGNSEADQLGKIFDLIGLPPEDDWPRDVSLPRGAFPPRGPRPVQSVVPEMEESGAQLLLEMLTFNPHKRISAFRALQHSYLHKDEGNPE
UniProt Q00535, whole entry, looked up: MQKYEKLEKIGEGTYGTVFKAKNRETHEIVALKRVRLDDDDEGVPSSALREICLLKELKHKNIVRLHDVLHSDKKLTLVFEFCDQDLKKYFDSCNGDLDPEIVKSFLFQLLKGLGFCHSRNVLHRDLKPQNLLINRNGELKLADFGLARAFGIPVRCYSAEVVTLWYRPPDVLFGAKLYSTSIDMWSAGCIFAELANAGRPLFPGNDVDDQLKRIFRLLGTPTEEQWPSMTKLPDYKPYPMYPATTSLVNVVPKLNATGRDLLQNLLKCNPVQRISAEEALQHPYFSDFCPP
UniProt Q00534, whole entry: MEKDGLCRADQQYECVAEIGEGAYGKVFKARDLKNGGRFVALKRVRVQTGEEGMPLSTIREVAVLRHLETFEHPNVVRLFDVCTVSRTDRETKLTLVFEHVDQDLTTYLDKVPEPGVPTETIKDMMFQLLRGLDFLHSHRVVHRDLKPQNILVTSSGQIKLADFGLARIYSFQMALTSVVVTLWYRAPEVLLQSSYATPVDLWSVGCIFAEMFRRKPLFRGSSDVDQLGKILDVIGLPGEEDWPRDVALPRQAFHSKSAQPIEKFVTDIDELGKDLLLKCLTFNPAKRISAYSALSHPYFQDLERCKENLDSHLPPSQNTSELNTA
UniProt P50613: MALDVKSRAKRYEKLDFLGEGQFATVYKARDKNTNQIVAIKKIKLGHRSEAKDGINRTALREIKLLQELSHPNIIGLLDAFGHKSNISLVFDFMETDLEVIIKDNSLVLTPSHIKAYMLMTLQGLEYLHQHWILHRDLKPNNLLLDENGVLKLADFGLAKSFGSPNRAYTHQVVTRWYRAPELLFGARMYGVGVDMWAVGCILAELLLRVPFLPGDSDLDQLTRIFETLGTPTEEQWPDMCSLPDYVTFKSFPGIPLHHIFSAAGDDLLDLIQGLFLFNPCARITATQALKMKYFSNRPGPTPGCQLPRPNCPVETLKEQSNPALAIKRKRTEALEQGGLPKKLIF
UniProt P50750, whole entry: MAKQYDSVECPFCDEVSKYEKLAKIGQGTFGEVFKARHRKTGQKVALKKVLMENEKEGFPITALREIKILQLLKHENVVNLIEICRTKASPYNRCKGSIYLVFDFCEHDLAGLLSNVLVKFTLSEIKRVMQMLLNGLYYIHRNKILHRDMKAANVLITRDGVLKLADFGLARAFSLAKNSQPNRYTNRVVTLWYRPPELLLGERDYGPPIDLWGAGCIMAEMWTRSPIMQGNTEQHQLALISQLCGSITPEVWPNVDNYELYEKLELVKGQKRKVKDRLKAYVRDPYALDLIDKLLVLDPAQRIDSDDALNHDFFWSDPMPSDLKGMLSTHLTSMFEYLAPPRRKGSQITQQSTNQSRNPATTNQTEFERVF
UniProt P48729: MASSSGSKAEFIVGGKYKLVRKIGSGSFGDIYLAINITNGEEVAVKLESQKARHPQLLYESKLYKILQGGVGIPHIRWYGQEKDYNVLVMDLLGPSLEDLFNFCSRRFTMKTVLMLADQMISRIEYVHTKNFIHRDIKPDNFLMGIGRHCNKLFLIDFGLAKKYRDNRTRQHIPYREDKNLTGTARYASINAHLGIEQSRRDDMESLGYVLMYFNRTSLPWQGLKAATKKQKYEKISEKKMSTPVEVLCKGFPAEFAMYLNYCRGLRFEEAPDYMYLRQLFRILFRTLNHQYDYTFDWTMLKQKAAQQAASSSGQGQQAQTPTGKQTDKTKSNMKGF
UniProt P48730: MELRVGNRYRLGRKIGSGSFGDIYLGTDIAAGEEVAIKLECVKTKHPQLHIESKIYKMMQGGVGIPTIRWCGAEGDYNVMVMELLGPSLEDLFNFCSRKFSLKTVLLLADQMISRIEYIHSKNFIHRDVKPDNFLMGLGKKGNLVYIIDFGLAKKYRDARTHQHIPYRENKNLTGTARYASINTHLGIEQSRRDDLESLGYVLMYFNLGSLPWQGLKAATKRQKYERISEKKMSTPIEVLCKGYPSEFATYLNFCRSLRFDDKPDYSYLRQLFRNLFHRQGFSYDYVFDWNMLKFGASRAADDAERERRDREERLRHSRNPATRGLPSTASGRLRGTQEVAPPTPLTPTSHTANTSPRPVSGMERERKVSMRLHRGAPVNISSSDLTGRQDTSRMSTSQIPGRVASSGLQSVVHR
UniProt Q08345: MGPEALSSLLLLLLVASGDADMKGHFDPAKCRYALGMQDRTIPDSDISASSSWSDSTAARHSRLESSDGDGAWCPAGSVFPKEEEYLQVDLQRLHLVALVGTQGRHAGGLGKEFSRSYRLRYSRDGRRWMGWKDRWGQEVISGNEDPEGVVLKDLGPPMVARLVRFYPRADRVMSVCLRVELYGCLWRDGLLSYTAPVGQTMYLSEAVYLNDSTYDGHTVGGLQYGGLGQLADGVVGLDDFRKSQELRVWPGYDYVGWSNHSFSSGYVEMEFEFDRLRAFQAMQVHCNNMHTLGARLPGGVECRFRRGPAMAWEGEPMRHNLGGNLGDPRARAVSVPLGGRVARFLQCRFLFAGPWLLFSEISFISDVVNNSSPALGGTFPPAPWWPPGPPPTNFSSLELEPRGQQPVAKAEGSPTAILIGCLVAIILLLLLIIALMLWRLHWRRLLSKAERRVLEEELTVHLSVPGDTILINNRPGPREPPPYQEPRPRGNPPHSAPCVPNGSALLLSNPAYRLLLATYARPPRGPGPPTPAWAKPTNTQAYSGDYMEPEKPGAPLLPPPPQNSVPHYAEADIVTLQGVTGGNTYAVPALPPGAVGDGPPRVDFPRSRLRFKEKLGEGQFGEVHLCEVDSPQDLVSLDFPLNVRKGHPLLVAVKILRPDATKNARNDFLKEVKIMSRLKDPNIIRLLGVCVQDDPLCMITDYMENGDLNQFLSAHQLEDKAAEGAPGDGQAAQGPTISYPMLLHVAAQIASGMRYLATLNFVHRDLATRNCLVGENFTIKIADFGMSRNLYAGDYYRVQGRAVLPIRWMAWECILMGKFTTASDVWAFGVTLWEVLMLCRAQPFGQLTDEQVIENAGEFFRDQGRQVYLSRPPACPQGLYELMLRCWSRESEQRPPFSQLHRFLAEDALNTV
UniProt Q9Y463, whole entry, looked up: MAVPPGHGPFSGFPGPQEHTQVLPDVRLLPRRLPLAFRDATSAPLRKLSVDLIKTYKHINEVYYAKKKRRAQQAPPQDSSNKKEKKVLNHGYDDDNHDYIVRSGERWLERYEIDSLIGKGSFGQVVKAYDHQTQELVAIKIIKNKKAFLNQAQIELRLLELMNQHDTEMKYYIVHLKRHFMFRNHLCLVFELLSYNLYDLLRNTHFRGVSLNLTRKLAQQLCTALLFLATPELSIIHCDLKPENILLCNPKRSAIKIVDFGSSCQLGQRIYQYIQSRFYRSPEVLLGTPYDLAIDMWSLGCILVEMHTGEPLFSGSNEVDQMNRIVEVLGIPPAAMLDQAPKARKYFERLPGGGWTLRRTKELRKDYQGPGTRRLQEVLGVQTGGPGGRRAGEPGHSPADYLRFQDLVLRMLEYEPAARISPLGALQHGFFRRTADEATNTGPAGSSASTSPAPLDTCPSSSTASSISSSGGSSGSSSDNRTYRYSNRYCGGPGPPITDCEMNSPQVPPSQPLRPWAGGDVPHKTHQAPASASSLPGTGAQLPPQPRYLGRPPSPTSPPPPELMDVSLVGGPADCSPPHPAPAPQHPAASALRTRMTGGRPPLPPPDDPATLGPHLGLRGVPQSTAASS
UniProt Q92630: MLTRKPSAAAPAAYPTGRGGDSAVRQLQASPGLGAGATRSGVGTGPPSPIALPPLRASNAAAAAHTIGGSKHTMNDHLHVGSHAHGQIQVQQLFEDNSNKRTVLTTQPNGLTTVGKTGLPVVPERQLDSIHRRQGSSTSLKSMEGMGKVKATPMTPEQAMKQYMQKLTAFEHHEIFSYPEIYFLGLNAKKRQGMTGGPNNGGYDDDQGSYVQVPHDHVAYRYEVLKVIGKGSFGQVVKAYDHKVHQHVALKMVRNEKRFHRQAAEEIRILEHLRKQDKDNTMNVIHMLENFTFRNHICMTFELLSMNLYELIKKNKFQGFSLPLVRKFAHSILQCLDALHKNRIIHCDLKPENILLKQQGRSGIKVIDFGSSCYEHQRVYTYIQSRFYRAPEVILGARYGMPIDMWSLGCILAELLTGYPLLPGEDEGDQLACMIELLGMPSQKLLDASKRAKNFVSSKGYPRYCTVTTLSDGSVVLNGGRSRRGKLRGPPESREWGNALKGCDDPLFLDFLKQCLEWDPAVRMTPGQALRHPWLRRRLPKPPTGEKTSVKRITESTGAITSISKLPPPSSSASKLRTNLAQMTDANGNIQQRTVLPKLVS

Key:
Assay in all cases: kinase-Nluc reporter destabilization hit call (1 = scored as downregulated) (binary); higher = compound decreases kinase abundance
Details in all cases: K562; 2-18 h
[1] = system: BRAF_V600E
[2] = target: BTK (UniProt Q06187)
[3] = target: CAMK2A (UniProt Q9UQM7)
[4] = target: CAMK2G (UniProt Q13555)
[5] = target: CDK10 (UniProt Q15131)
[6] = target: CDK2 (UniProt P24941)
[7] = target: CDK3 (UniProt Q00526)
[8] = target: CDK4 (UniProt P11802)
[9] = target: CDK5 (UniProt Q00535)
[10] = target: CDK6 (UniProt Q00534)
[11] = target: CDK7 (UniProt P50613)
[12] = target: CDK9 (UniProt P50750)
[13] = target: CHEK2 (UniProt O96017)
[14] = target: CSF1R (UniProt P07333)
[15] = target: CSK (UniProt P41240)
[16] = target: CSNK1A1 (UniProt P48729)
[17] = target: CSNK1D (UniProt P48730)
[18] = target: DDR1 (UniProt Q08345)
[19] = target: DYRK1B (UniProt Q9Y463)
[20] = target: DYRK2 (UniProt Q92630)

Measured: kinase-Nluc reporter destabilization hit call

Nc1n[nH]c2cc(-c3ccc(=O)n(Cc4cccc(Cl)c4)c3)ccc12 (10 µM)
inactive: [1] 0 | [2] 0 | [3] 0 | [4] 0 | [5] 0 | [6] 0 | [7] 0 | [8] 0 | [9] 0 | [10] 0 | [11] 0 | [12] 0 | [13] 0 | [14] 0 | [15] 0 | [16] 0 | [17] 0 | [18] 0 | [19] 0 | [20] 0

CNC(=O)c1cc(Oc2ccc3nc(N[C@@H]4CCCC[C@H]4O)sc3c2)ccn1 (10 µM)
inactive: [1] 0 | [2] 0 | [3] 0 | [4] 0 | [5] 0 | [6] 0 | [7] 0 | [8] 0 | [9] 0 | [10] 0 | [11] 0 | [12] 0 | [13] 0 | [14] 0 | [15] 0 | [16] 0 | [17] 0 | [18] 0 | [19] 0 | [20] 0

Cc1ccc(-c2ncn(-c3ccc(Nc4nccc(-c5cccc(N6CCOCC6)c5)n4)cc3)n2)cn1 (10 µM)
inactive: [1] 0 | [2] 0 | [3] 0 | [4] 0 | [5] 0 | [6] 0 | [7] 0 | [8] 0 | [9] 0 | [10] 0 | [11] 0 | [12] 0 | [13] 0 | [14] 0 | [15] 0 | [16] 0 | [17] 0 | [18] 0 | [19] 0 | [20] 0

CCCC(=O)Nc1nc2c(ncn2[C@@H]2O[C@@H]3COP(=O)(O)O[C@H]3[C@H]2OC(=O)CCC)c(=O)[nH]1 [Dibutyryl-cGMP (sodium)] (10 µM)
inactive: [1] 0 | [2] 0 | [3] 0 | [4] 0 | [5] 0 | [6] 0 | [7] 0 | [8] 0 | [9] 0 | [10] 0 | [11] 0 | [12] 0 | [13] 0 | [14] 0 | [15] 0 | [16] 0 | [17] 0 | [18] 0 | [19] 0 | [20] 0

Some of these compounds in order of molecular weight, smallest number first.
CNC(=O)c1cc(Oc2ccc3nc(N[C@@H]4CCCC[C@H]4O)sc3c2)ccn1 (10 µM)
inactive: [1] 0 | [2] 0 | [3] 0 | [4] 0 | [5] 0 | [6] 0 | [7] 0 | [8] 0 | [9] 0 | [10] 0 | [11] 0 | [12] 0 | [13] 0 | [14] 0 | [15] 0 | [16] 0 | [17] 0 | [18] 0 | [19] 0 | [20] 0

CCCC(=O)Nc1nc2c(ncn2[C@@H]2O[C@@H]3COP(=O)(O)O[C@H]3[C@H]2OC(=O)CCC)c(=O)[nH]1 [Dibutyryl-cGMP (sodium)] (10 µM)
inactive: [1] 0 | [2] 0 | [3] 0 | [4] 0 | [5] 0 | [6] 0 | [7] 0 | [8] 0 | [9] 0 | [10] 0 | [11] 0 | [12] 0 | [13] 0 | [14] 0 | [15] 0 | [16] 0 | [17] 0 | [18] 0 | [19] 0 | [20] 0

Cc1ccc(-c2ncn(-c3ccc(Nc4nccc(-c5cccc(N6CCOCC6)c5)n4)cc3)n2)cn1 (10 µM)
inactive: [1] 0 | [2] 0 | [3] 0 | [4] 0 | [5] 0 | [6] 0 | [7] 0 | [8] 0 | [9] 0 | [10] 0 | [11] 0 | [12] 0 | [13] 0 | [14] 0 | [15] 0 | [16] 0 | [17] 0 | [18] 0 | [19] 0 | [20] 0

Carrying on.

CC(C)c1cnn2c(NCc3ccccc3-n3cccn3)nc(OC3CCCNC3)nc12 (stereo not given) (2.5 µM)
inactive: [1] 0 | [2] 0 | [3] 0 | [4] 0 | [5] 0 | [6] 0 | [7] 0 | [8] 0 | [9] 0 | [10] 0 | [11] 0 | [12] 0 | [13] 0 | [14] 0 | [15] 0 | [16] 0 | [17] 0 | [18] 0 | [19] 0 | [20] 0

O=c1ccoc2cc(O)ccc12 [7-Hydroxy-4H-chromen-4-one] (10 µM)
inactive: [1] 0 | [2] 0 | [3] 0 | [4] 0 | [5] 0 | [6] 0 | [7] 0 | [8] 0 | [9] 0 | [10] 0 | [11] 0 | [12] 0 | [13] 0 | [14] 0 | [15] 0 | [16] 0 | [17] 0 | [18] 0 | [19] 0 | [20] 0

Cc1cc2ncc(-c3ccccc3)nc2cc1C (10 µM)
inactive: [1] 0 | [2] 0 | [3] 0 | [4] 0 | [5] 0 | [6] 0 | [7] 0 | [8] 0 | [9] 0 | [10] 0 | [11] 0 | [12] 0 | [13] 0 | [14] 0 | [15] 0 | [16] 0 | [17] 0 | [18] 0 | [19] 0 | [20] 0

CCOc1nc(Nc2ccc(C(=O)N3CCOCC3)cc2OC)nc2[nH]ccc12 [LRRK2 inhibitor 1] (2.5 µM)
inactive: [1] 0 | [2] 0 | [3] 0 | [4] 0 | [5] 0 | [6] 0 | [7] 0 | [8] 0 | [9] 0 | [10] 0 | [11] 0 | [12] 0 | [13] 0 | [14] 0 | [15] 0 | [16] 0 | [17] 0 | [18] 0 | [19] 0 | [20] 0

Cn1cc(-c2ccc(F)c(C(F)(F)F)c2)nc1C1CCN(c2ncnc3[nH]ncc23)CC1 (10 µM)
inactive: [1] 0 | [2] 0 | [3] 0 | [4] 0 | [5] 0 | [6] 0 | [7] 0 | [8] 0 | [9] 0 | [10] 0 | [11] 0 | [12] 0 | [13] 0 | [14] 0 | [15] 0 | [16] 0 | [17] 0 | [18] 0 | [19] 0 | [20] 0

O=C(NOCCO)c1ccc2cncn2c1Nc1ccc(I)cc1F (10 µM)
inactive: [1] 0 | [2] 0 | [3] 0 | [4] 0 | [5] 0 | [6] 0 | [7] 0 | [8] 0 | [9] 0 | [10] 0 | [11] 0 | [12] 0 | [13] 0 | [14] 0 | [15] 0 | [16] 0 | [17] 0 | [18] 0 | [19] 0 | [20] 0

COc1c(C)c(C(=O)c2ccc(N)c(C(=O)O)c2)n2ccccc12 (10 µM)
inactive: [1] 0 | [2] 0 | [3] 0 | [4] 0 | [5] 0 | [6] 0 | [7] 0 | [8] 0 | [9] 0 | [10] 0 | [11] 0 | [12] 0 | [13] 0 | [14] 0 | [15] 0 | [16] 0 | [17] 0 | [18] 0 | [19] 0 | [20] 0

CC1(COc2ccc3c(c2)ncn3-c2ccc3cccc(N4CCC(N)CC4)c3n2)COC1 [Crenolanib] (2.5 µM)
inactive: [1] 0 | [2] 0 | [3] 0 | [4] 0 | [5] 0 | [6] 0 | [7] 0 | [8] 0 | [9] 0 | [10] 0 | [11] 0 | [12] 0 | [13] 0 | [14] 0 | [15] 0 | [16] 0 | [17] 0 | [18] 0 | [19] 0 | [20] 0

CC(CCc1ccccn1)(CCc1ccccn1)C(=O)c1ccccc1 (10 µM)
inactive: [1] 0 | [2] 0 | [3] 0 | [4] 0 | [5] 0 | [6] 0 | [7] 0 | [8] 0 | [9] 0 | [10] 0 | [11] 0 | [12] 0 | [13] 0 | [14] 0 | [15] 0 | [16] 0 | [17] 0 | [18] 0 | [19] 0 | [20] 0

Cn1cc(-c2cc3c(N4CCN(c5ncc([C@@](C)(N)c6ccc(F)cc6)cn5)CC4)ncnn3c2)cn1 [Avapritinib] (2.5 µM)
inactive: [1] 0 | [2] 0 | [3] 0 | [4] 0 | [5] 0 | [6] 0 | [7] 0 | [8] 0 | [9] 0 | [10] 0 | [11] 0 | [12] 0 | [13] 0 | [14] 0 | [15] 0 | [16] 0 | [17] 0 | [18] 0 | [19] 0 | [20] 0

CC[C@@H]1C(=O)N(C)c2cnc(Nc3ccc(C(=O)N[C@H]4CC[C@H](N5CCN(CC6CC6)CC5)CC4)cc3OC)nc2N1C(C)C [Volasertib] (2.5 µM)
inactive: [1] 0 | [2] 0 | [3] 0 | [4] 0 | [5] 0 | [6] 0 | [7] 0 | [8] 0 | [9] 0 | [10] 0 | [11] 0 | [12] 0 | [13] 0 | [14] 0 | [15] 0 | [16] 0 | [17] 0 | [18] 0 | [19] 0 | [20] 0

CN1CCN(CCCNc2ncc(Cl)c(-c3cc4c(C(=O)NC5CC5)cccc4s3)n2)CC1 (10 µM)
inactive: [1] 0 | [2] 0 | [3] 0 | [4] 0 | [5] 0 | [6] 0 | [7] 0 | [8] 0 | [9] 0 | [10] 0 | [11] 0 | [12] 0 | [13] 0 | [14] 0 | [15] 0 | [16] 0 | [17] 0 | [18] 0 | [19] 0 | [20] 0

COc1ccc(-n2c(C)c([N+](=O)[O-])c3ccc(O)cc32)cc1 (10 µM)
inactive: [1] 0 | [2] 0 | [3] 0 | [4] 0 | [5] 0 | [6] 0 | [7] 0 | [8] 0 | [9] 0 | [10] 0 | [11] 0 | [12] 0 | [13] 0 | [14] 0 | [15] 0 | [16] 0 | [17] 0 | [18] 0 | [19] 0 | [20] 0

CCC(C)(C)C(=O)N(O)Cc1ccccc1 (10 µM)
inactive: [1] 0 | [2] 0 | [3] 0 | [4] 0 | [5] 0 | [6] 0 | [7] 0 | [8] 0 | [9] 0 | [10] 0 | [11] 0 | [12] 0 | [13] 0 | [14] 0 | [15] 0 | [16] 0 | [17] 0 | [18] 0 | [19] 0 | [20] 0
